We go through 4 molecules from the odorant receptor screen of Mainland et al. (2015).

Some test systems named below: OR13C3 G2C clone 1339; OR13C3 clone 1390; OR13C4 clone 1094; OR13C7 Indel clone 1100; OR13C8 clone 1095; OR13C9 F197L clone 1096; OR13D1 clone 1338; OR13D1 clone 1484; OR13G1 I132V clone 1036; OR13H1 clone 1497; OR13J1 H133R clone 1098; OR14A16 Indel clone 1030; OR14A2 clone 1042; OR14J1 clone 1318; OR14J1 clone 1391; OR14K1 clone 1043.
Common to all, as to assay: odorant receptor activation (CRE luciferase / Renilla) (fold of no-odor wells); higher = more activation
Common to all, as to conditions: 100 µM

The test system of test [1] is OR13C5 S18F/L69M/P79S/L86V/N128S/M258T clone 1477.
In test [2] the test system is OR13F1 F18S/M101V/V134I/I270T clone 1097.
Test [3] relates to OR14C36 G225R/D231Y clone 1028.
Test [4] has as its system OR14I1 V36A/D50N/S170N clone 1479.

Several values for one entry are separate records, joined by “and”; a condition that tells them apart may be missing. Identical values can stand only once. This is one part of the list. Single wells; the ratio to wells without odorant was worked out here, and repeats agree poorly.

For the molecule `CS` [methanethiol], the odorant receptor activation in the test with OR13C3 G2C clone 1339 was 0.936; in the test on OR13C3 clone 1390, 0.802; in the test on OR13C4 clone 1094, 0.94; in test [1], 1.13; in the test on OR13C7 Indel clone 1100, 1.14; in the test with OR13C8 clone 1095, 1.24. For the same molecule, the odorant receptor activation turned out to be 1.23 in the test on OR13C9 F197L clone 1096; 0.921 in the test with OR13D1 clone 1338; 0.825 in the test with OR13D1 clone 1484; 1.15 in [2]; 0.893 with OR13G1 I132V clone 1036; 0.891 in the test on OR13H1 clone 1497. Also, the odorant receptor activation in the test on OR13J1 H133R clone 1098 came to 1.08; in the test on OR14A16 Indel clone 1030, 0.993; in the test on OR14A2 clone 1042, 0.82; in [3] it was 1.17; in [4] it was 0.88; with OR14J1 clone 1318 it was 0.767. In addition, the odorant receptor activation in the test on OR14J1 clone 1391 is 1.11; in the test on OR14K1 clone 1043 it was 0.834.

For the molecule `CCOc1cc(C=O)ccc1O` [ethyl vanillin], the odorant receptor activation in the test with OR13C3 G2C clone 1339 was 0.376 and 1.11; in the test with OR13C3 clone 1390, 1.19 and 1.05; in the test on OR13C4 clone 1094 it was 1.62 and 1.04; in [1] it was 1.28 and 1.73 and 1.03; with OR13C7 Indel clone 1100, 0.836 and 1.1; in the test on OR13C8 clone 1095, 1.9 and 1.13. Moreover, the odorant receptor activation with OR13C9 F197L clone 1096 was 0.85 and 1.11; with OR13D1 clone 1338, 2.88 and 1.08; in the test with OR13D1 clone 1484, 1.13 and 1.82 and 1.44; in test [2] it was 0.82 and 0.933; in the test on OR13G1 I132V clone 1036 it was 0.852 and 1.13; in the test on OR13H1 clone 1497 it was 0.923 and 1.98 and 1.23. The odorant receptor activation in the test on OR13J1 H133R clone 1098 was 1.08 and 1.15; in the test with OR14A16 Indel clone 1030 it was 1.47 and 1.02; in the test on OR14A2 clone 1042, 1.5 and 1.15; in [3], 1.1 and 1.15; in test [4] it was 1.03 and 1.57 and 1.12; in the test with OR14J1 clone 1318, 1.97 and 1.15. The odorant receptor activation was 1.07 and 1.25 in the test with OR14J1 clone 1391; 0.731 and 1.15 in the test on OR14K1 clone 1043.

With `CCCCOC(C)=O` [butyl acetate], the odorant receptor activation with OR13C3 G2C clone 1339 stood at 0.981; with OR13C3 clone 1390, 0.218; with OR13C4 clone 1094 it was 1.21; in [1] it was 0.832; in the test on OR13C7 Indel clone 1100, 1.36; in the test with OR13C8 clone 1095, 0.92. For the same molecule, the odorant receptor activation with OR13C9 F197L clone 1096 amounted to 1.2; in the test on OR13D1 clone 1338, 0.785; with OR13D1 clone 1484 it was 1.29; in [2], 1.19; in the test on OR13G1 I132V clone 1036, 1.08; in the test on OR13H1 clone 1497 it was 0.872. Besides, the odorant receptor activation in the test on OR13J1 H133R clone 1098 was 0.849; in the test with OR14A16 Indel clone 1030 it was 0.82; in the test on OR14A2 clone 1042 it was 1.17; in test [3], 0.811; in test [4] it was 1.24; in the test with OR14J1 clone 1318, 0.669. In addition, the odorant receptor activation in the test with OR14J1 clone 1391 is 0.136; in the test with OR14K1 clone 1043, 0.89.

As for `CCC(C)=O` [2-butanone], the odorant receptor activation was determined as 1.17 in the test with OR13C3 G2C clone 1339; 1.39 with OR13C3 clone 1390; 16.1 with OR13C4 clone 1094; 1.02 in [1]; 12.6 in the test on OR13C7 Indel clone 1100; 3.15 with OR13C8 clone 1095. Further, the odorant receptor activation turned out to be 34.7 in the test on OR13C9 F197L clone 1096; 1.04 with OR13D1 clone 1338; 0.918 in the test with OR13D1 clone 1484; 1.6 in test [2]; 2.72 in the test on OR13G1 I132V clone 1036; 1.09 in the test on OR13H1 clone 1497. Further, the odorant receptor activation in the test on OR13J1 H133R clone 1098 is 3.68; in the test with OR14A16 Indel clone 1030 it was 2.75; in the test on OR14A2 clone 1042, 2.04; in test [3] it was 3.74; in test [4], 0.926; in the test on OR14J1 clone 1318 it was 1.23. The odorant receptor activation was 1.83 with OR14J1 clone 1391 and 3.49 in the test on OR14K1 clone 1043.
